At least one structure is not confirmed: it was looked up by name or label, or the drawing left a doubt.
Tested on: HT22 cells
Experiment: Erastin-induced HT22 ferroptosis model, cell viability by CCK8
Assay type: cell-based
Conditions: 50 μM Erastin; 0.1% sodium hyaluronate and/or 20 μM DFO; 12 hours; FIG. 10

In the case of `CC(=O)N(O)CCCCCNC(=O)CCC(=O)N(O)CCCCCNC(=O)CCC(=O)N(O)CCCCCN` [DFO, deferoxamine], the “anti-ferroptosis function (cell viability)” value is reported as “have anti-ferroptosis function”.

Reference: patent US12233085B2, “Application of hyaluronic acid in preparing medicines for preventing or treating ferroptosis-related diseases” (ACADEMY OF MILITARY MEDICAL SCIENCES, ACADEMY OF MILITARY …, priority 2021, dated 2025)
